Reference: PubChem BioAssay AID1259254 (NCATS, 2017)
Here is one part, drawn at random, of about 59,000 reagents. Of all reagents, about 1,550 (2.6%) were called active. 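G2 share is only a proxy for re-replication; each gene was hit by three separate siRNAs, and active genes were retested.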 A number with no mark means an inactive call. Reagents against one gene are numbered here. Further read-outs or replicates are left out here. Not given: the amount of reagent.

Purpose: 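Gene knock-downs that lead to re-replication, shown by excess G2 DNA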 (primary screen)
Cells: human HCT116 colorectal cancer cells
Reagents: single siRNA against human genes
Timing: 3 days
Read-out: 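Nuclei stained with Hoechst and imaged; cell-cycle phase assigned by DNA content; G2 share scaled per plate, non-targeting siRNA 0%, GMNN siRNA 100%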
Direction: G2 robust z-score: higher = more G2 cells, more excess DNA replication
Rule for the call: 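An siRNA counts as active if its G2 robust z-score lies at least 5 MADs above the screen median; here such calls match roughly 38% of GMNN control or more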

The opening 2 entries as a preview:
{"Gene": "MICALL1", "reagent no.": 1, "G2 robust z-score": 0.478}
{"Gene": "MICALL1", "reagent no.": 2, "G2 robust z-score": 0.788}

Main list, repeating the preview:
{"Gene": "MICALL1", "reagent no.": 1, "G2 robust z-score": 0.478}
{"Gene": "MICALL1", "reagent no.": 2, "G2 robust z-score": 0.788}
{"Gene": "MICALL1", "reagent no.": 3, "G2 robust z-score": -0.298}
{"Gene": "ABTB3", "reagent no.": 1, "G2 robust z-score": 2.39}
{"Gene": "ABTB3", "reagent no.": 2, "G2 robust z-score": -0.209}
{"Gene": "ABTB3", "reagent no.": 3, "G2 robust z-score": -0.317}
{"Gene": "PRR33", "reagent no.": 1, "G2 robust z-score": 1.06}
{"Gene": "PRR33", "reagent no.": 2, "G2 robust z-score": 0.904}
{"Gene": "PRR33", "reagent no.": 3, "G2 robust z-score": -0.081}
{"Gene": "SPDL1", "reagent no.": 1, "G2 robust z-score": 4.08}
{"Gene": "SPDL1", "reagent no.": 2, "G2 robust z-score": 0.596}
{"Gene": "SPDL1", "reagent no.": 3, "G2 robust z-score": 0.861}
{"Gene": "MUC20", "reagent no.": 1, "G2 robust z-score": 0.957}
{"Gene": "MUC20", "reagent no.": 2, "G2 robust z-score": -0.291}
{"Gene": "MUC20", "reagent no.": 3, "G2 robust z-score": -0.973}
{"Gene": "BPIFB4", "reagent no.": 1, "G2 robust z-score": 0.443}
{"Gene": "BPIFB4", "reagent no.": 2, "G2 robust z-score": 1.86}
{"Gene": "BPIFB4", "reagent no.": 3, "G2 robust z-score": -0.0733}
{"Gene": "SEMA4B", "reagent no.": 1, "G2 robust z-score": -1.65}
{"Gene": "SEMA4B", "reagent no.": 2, "G2 robust z-score": -1.08}
{"Gene": "SEMA4B", "reagent no.": 3, "G2 robust z-score": 1.72}
{"Gene": "ARSL", "reagent no.": 1, "G2 robust z-score": 1.16}
{"Gene": "ARSL", "reagent no.": 2, "G2 robust z-score": 0.287}
{"Gene": "ARSL", "reagent no.": 3, "G2 robust z-score": -0.439}
